The values below come from publication PMC4536269.

Protein sequences, listed by entry. Tags and fused reporters are not part of them. Lines headed by an entry give the natural chain unless they say otherwise; changes in a name come on top. Chains listed by the source or under a name are the forms on record and can include a tag or linker.
Plasma membrane calcium pump isoform 2 (P11506-14, form named): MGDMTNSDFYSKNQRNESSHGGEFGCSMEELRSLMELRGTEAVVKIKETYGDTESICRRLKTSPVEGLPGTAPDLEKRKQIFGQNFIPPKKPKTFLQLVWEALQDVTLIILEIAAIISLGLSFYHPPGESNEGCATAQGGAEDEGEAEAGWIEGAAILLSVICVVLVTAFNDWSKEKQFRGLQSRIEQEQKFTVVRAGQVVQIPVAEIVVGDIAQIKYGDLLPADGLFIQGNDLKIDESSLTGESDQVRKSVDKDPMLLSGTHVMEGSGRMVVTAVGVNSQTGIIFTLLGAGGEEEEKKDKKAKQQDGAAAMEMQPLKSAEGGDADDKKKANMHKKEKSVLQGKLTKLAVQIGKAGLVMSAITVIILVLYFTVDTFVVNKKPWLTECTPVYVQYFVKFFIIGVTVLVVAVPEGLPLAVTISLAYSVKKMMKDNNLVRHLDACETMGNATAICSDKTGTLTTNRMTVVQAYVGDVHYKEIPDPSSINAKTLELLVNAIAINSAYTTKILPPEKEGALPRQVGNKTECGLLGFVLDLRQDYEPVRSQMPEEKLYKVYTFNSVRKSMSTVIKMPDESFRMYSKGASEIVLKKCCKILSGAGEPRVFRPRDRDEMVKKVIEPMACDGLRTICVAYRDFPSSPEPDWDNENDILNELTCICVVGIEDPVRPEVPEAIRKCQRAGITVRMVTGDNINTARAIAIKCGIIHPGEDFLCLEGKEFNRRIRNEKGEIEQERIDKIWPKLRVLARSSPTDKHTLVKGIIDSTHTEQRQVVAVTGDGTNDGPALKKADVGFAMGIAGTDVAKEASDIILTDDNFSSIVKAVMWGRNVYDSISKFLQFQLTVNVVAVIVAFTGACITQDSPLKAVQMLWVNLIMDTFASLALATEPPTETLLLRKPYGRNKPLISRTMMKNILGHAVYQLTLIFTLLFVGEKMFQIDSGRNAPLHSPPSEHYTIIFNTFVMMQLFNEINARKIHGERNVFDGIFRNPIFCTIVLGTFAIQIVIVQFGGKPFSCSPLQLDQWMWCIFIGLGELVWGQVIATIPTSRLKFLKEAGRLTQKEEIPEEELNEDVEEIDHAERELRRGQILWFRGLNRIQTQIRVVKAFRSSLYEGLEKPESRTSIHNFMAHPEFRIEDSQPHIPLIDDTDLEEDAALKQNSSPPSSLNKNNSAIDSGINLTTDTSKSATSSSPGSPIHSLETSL
UniProt P11505: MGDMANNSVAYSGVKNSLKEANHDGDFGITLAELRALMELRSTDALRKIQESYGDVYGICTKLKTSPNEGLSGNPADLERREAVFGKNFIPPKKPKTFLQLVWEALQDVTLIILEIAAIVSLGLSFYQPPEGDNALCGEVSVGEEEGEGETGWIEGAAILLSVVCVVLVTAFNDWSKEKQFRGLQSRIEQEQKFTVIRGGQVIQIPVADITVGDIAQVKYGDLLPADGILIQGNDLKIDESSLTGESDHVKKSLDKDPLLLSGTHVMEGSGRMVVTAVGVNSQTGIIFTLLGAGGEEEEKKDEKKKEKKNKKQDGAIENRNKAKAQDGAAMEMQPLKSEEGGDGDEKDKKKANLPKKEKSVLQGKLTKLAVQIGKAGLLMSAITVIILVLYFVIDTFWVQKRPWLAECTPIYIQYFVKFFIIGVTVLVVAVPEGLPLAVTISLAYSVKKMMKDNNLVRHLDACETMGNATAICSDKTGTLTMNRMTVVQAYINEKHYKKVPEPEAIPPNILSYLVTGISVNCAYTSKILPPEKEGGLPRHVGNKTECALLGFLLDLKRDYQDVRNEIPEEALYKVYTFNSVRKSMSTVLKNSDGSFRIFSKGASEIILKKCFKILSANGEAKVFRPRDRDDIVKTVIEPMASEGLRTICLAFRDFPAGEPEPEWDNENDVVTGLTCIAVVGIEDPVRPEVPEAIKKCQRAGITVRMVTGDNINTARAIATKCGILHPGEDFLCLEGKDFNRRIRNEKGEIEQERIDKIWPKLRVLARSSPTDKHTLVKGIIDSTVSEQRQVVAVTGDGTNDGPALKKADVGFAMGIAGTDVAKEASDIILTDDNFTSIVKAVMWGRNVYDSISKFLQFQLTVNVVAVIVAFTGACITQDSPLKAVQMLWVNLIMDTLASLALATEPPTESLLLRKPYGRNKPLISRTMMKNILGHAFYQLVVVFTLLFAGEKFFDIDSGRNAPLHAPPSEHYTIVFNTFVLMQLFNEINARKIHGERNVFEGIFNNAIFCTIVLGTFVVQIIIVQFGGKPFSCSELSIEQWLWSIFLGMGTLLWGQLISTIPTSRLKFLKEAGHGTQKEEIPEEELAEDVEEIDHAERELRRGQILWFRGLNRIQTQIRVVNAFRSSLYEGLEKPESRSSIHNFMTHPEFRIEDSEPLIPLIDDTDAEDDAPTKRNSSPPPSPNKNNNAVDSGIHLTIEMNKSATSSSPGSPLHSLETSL
Plasma membrane calcium pump isoform 3 (Q64568-3, form named): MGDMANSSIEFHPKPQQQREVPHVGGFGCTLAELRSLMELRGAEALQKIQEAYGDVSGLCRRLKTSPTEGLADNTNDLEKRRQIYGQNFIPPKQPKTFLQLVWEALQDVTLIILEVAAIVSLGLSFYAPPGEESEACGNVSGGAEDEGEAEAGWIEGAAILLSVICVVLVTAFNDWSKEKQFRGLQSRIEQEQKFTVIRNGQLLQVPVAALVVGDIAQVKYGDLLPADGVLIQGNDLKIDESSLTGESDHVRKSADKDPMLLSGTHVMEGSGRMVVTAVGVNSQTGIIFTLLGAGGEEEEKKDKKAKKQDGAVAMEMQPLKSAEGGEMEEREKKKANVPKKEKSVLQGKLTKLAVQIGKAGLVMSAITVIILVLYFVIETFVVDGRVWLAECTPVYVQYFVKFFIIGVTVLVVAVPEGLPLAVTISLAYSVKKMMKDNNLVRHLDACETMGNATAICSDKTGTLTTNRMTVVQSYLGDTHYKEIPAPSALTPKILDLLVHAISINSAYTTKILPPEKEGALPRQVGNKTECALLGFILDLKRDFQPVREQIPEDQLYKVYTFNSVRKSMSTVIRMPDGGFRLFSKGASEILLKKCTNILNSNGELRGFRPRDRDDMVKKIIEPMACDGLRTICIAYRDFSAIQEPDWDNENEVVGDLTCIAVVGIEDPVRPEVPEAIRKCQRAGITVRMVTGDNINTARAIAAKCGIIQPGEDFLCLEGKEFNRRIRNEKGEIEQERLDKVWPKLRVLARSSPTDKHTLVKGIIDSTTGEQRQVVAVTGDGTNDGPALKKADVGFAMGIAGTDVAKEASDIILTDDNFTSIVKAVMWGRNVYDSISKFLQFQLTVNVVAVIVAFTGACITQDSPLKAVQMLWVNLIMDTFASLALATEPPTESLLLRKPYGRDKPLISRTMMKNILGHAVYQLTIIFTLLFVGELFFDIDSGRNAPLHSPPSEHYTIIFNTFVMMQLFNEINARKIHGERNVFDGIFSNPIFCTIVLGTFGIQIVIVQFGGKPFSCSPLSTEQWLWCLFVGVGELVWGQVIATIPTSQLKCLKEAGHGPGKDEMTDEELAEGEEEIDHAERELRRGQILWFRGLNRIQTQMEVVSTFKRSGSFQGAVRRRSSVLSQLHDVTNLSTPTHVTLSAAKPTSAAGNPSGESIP
UniProt Q64542: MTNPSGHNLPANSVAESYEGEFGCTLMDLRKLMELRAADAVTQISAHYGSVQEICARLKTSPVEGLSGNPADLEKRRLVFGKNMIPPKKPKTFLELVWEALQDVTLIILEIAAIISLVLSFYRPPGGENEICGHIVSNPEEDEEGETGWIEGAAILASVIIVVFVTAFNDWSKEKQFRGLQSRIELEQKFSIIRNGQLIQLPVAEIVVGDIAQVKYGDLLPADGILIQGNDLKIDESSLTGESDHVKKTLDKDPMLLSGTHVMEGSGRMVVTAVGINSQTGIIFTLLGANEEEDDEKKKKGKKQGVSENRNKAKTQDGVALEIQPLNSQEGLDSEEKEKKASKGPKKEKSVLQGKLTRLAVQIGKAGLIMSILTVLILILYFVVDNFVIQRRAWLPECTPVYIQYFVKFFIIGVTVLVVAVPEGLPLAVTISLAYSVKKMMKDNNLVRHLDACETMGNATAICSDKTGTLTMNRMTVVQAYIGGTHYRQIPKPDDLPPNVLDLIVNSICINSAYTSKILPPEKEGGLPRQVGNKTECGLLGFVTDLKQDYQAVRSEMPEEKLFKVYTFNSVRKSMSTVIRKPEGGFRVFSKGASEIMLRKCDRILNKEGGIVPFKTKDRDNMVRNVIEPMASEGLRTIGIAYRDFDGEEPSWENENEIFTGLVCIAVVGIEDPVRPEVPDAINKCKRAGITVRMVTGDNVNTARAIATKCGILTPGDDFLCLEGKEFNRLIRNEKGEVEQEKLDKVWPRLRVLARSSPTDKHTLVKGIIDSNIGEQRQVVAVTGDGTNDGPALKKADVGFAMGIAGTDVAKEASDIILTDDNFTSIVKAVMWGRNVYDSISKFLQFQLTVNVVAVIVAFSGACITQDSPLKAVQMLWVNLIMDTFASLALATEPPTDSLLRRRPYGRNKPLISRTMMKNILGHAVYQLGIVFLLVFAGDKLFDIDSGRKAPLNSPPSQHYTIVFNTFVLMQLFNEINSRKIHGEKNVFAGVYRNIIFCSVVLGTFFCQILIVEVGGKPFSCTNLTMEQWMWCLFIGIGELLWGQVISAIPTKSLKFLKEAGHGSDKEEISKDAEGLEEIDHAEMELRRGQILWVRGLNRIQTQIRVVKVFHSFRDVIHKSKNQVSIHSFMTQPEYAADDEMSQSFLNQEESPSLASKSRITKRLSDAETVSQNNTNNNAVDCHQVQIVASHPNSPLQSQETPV

These are yes or no findings as the source states them, for the method shown. In cells and extracts the contact can be indirect. Some entries that bind do so weakly or less than the wild type.

For test [1], the target named is Calcineurin (rat (endogenous in PC12)) (UniProt P63329). Briefly: co-IP; polyclonal anti-calcineurin antibodies and protein A/G agarose on RIPA lysates of differentiated PC12 lines (control, _2, _3), 4 °C; blots with anti-PMCA1, anti-PMCA2, anti-PMCA3, anti-PMCA4.
Test [2] has the same target. The test can be described thus: co-IP; as a2, in the PMCA2-reduced (_2) and PMCA3-reduced (_3) differentiated PC12 lines only; blot with anti-PMCA4; immunosignal lowered by ~51 and ~62 % against mock-transfected cells.

Consider “Plasma membrane calcium pump isoform 2 (from UniProt P11506-14 1-1198)”, for which the binding entry in test [1] is “binds”.
For the substance “Plasma membrane calcium pump isoform 1 (from UniProt P11505 1-1220)”, the binding entry in test [1] is “no binding”.
“Plasma membrane calcium pump isoform 3 (from UniProt Q64568-3 1-1159)”: the binding result in test [1] is given as “no binding”.
As to “Plasma membrane calcium pump isoform 4 (from UniProt Q64542 1-1203)”, the binding result in test [2] is “binds weakly”; in test [1] it was “binds”.
